These are yes or no findings as the source states them, for the method shown. In cells and extracts the contact can be indirect. Here binding means that the protein was enriched with, or labelled near, the bait; the list need not be complete.
T1: SMYD3 (human (endogenous in D283)) (UniProt Q9H7B4)
T1 sequence: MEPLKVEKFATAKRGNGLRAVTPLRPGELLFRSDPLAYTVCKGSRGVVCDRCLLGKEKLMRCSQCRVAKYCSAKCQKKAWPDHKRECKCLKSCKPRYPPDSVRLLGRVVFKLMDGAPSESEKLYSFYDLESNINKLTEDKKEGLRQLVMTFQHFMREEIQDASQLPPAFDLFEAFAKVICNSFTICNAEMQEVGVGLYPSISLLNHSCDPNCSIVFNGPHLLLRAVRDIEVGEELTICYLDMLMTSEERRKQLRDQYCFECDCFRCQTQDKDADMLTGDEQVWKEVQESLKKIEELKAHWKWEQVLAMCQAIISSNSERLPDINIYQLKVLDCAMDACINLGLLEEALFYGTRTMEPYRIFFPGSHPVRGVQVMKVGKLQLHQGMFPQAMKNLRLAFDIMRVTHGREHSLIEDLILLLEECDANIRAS

Sequences of proteins named here, by UniProt entry; tags and fusion partners are left off.
UniProt O95067: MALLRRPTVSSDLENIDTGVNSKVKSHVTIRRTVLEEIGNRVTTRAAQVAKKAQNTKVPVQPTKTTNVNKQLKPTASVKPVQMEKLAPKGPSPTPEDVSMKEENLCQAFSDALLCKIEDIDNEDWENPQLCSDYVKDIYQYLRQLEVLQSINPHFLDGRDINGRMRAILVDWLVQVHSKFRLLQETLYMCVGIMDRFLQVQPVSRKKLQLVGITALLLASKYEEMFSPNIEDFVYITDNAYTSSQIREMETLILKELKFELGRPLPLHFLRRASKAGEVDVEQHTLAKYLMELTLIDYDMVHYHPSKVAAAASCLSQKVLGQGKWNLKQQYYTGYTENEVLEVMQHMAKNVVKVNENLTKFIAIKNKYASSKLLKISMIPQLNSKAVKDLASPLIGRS
UniProt P24385: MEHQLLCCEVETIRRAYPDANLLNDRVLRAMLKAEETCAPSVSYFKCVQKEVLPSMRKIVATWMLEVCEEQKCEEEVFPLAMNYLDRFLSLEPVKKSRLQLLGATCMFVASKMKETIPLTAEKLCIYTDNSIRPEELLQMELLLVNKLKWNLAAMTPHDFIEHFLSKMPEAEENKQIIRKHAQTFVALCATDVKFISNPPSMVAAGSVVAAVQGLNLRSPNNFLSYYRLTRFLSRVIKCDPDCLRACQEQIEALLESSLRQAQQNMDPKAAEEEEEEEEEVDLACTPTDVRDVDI

B1: KDM2A (protein, UniProt Q9Y2K7 1-1162)
chain: MEPEEERIRYSQRLRGTMRRRYEDDGISDDEIEGKRTFDLEEKLHTNKYNANFVTFMEGKDFNVEYIQRGGLRDPLIFKNSDGLGIKMPDPDFTVNDVKMCVGSRRMVDVMDVNTQKGIEMTMAQWTRYYETPEEEREKLYNVISLEFSHTRLENMVQRPSTVDFIDWVDNMWPRHLKESQTESTNAILEMQYPKVQKYCLMSVRGCYTDFHVDFGGTSVWYHIHQGGKVFWLIPPTAHNLELYENWLLSGKQGDIFLGDRVSDCQRIELKQGYTFVIPSGWIHAVYTPTDTLVFGGNFLHSFNIPMQLKIYNIEDRTRVPNKFRYPFYYEMCWYVLERYVYCITNRSHLTKEFQKESLSMDLELNGLESGNGDEEAVDREPRRLSSRRSVLTSPVANGVNLDYDGLGKTCRSLPSLKKTLAGDSSSDCSRGSHNGQVWDPQCAPRKDRQVHLTHFELEGLRCLVDKLESLPLHKKCVPTGIEDEDALIADVKILLEELANSDPKLALTGVPIVQWPKRDKLKFPTRPKVRVPTIPITKPHTMKPAPRLTPVRPAAASPIVSGARRRRVRCRKCKACVQGECGVCHYCRDMKKFGGPGRMKQSCVLRQCLAPRLPHSVTCSLCGEVDQNEETQDFEKKLMECCICNEIVHPGCLQMDGEGLLNEELPNCWECPKCYQEDSSEKAQKRKMEESDEEAVQAKVLRPLRSCDEPLTPPPHSPTSMLQLIHDPVSPRGMVTRSSPGAGPSDHHSASRDERFKRRQLLRLQATERTMVREKENNPSGKKELSEVEKAKIRGSYLTVTLQRPTKELHGTSIVPKLQAITASSANLRHSPRVLVQHCPARTPQRGDEEGLGGEEEEEEEEEEEDDSAEEGGAARLNGRGSWAQDGDESWMQREVWMSVFRYLSRRELCECMRVCKTWYKWCCDKRLWTKIDLSRCKAIVPQALSGIIKRQPVSLDLSWTNISKKQLTWLVNRLPGLKDLLLAGCSWSAVSALSTSSCPLLRTLDLRWAVGIKDPQIRDLLTPPADKPGQDNRSKLRNMTDFRLAGLDITDATLRLIIRHMPLLSRLDLSHCSHLTDQSSNLLTAVGSSTRYSLTELNMAGCNKLTDQTLIYLRRIANVTLIDLRGCKQITRKACEHFISDLSINSLYCLSDEKLIQKIS

The molecules below were run against T1, SMYD3 (human (endogenous in D283)) (assay: affinity purification with mass spectrometry; nuclear extracts of D283 cells immunoprecipitated with anti-SMYD3 antibody; SMYD3-bound fractions analysed by LC-MS/MS).

binding | Molecule
binds | CCNB2 (from UniProt O95067 1-398)
binds | cyclin D1 (from UniProt P24385 1-295)
binds | B1
